The supplement of paper PMC4604168 (melanoma cell lines)
The list shows a part of the results. Single values are uncertain, as repeats are few or missing.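 The apoptosis fraction was the count of cleaved-PARP antibody-stained nuclei relative to all DNA-stained nuclei, imaged in 1,536-well plates. Screening doses were set so most cells survived, and baseline and induced cleaved-PARP levels vary greatly across cell lines.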

How the values were obtained:
Test in all cases: cleaved PARP positive nuclei fraction relative to DMSO control; melanoma cells; higher = more apoptosis
Conditions in all cases: library dose: low library concentration; 72 h
501Mel = tested on: 501Mel
A101D = tested on: A101D
A2058 = tested on: A2058
A375 = tested on: A375
C32 = tested on: C32
CBRC008 = tested on: CBRC008 (line from a melanoma biopsy)
CBRC013 = tested on: CBRC013 (line from a melanoma biopsy)
CBRC014 = tested on: CBRC014 (line from a melanoma biopsy)
CBRC016 = tested on: CBRC016 (line from a melanoma biopsy)
CBRC017 = tested on: CBRC017 (line from a melanoma biopsy)

`Cn1cc(C2=C(c3cn(C4CCN(Cc5ccccn5)CC4)c4ccccc34)C(=O)NC2=O)c2ccccc21` [Enzastaurin] + Cc1ccc(NC(=O)c2cccc(N(C)C)c2)cc1NC(=O)c1ccc(O)cc1 [ZM336372] (first compound 0.8 µM, partner dose 2 µM) was tested, and the “cleaved PARP positive nuclei fraction” value (501Mel) was 98.2%, the “cleaved PARP positive nuclei fraction” value (A101D) was 90.6% and the “cleaved PARP positive nuclei fraction” value (A2058) was 126%. For the same compound, the “cleaved PARP positive nuclei fraction” value (A375) was 52.9%, the “cleaved PARP positive nuclei fraction” value (C32) was 41% and the “cleaved PARP positive nuclei fraction” value (CBRC008) was 454%. The “cleaved PARP positive nuclei fraction” value (CBRC013) was 71.1%, the “cleaved PARP positive nuclei fraction” value (CBRC014) was 150% and the “cleaved PARP positive nuclei fraction” value (CBRC016) was 153%. For the same compound, the “cleaved PARP positive nuclei fraction” value (CBRC017) was 94.4%.
In the case of `C[As](C)SC[C@H](NC(=O)CC[C@H](N)C(=O)O)C(=O)NCC(=O)O` [Darinaparsin] + COc1cc2c(Oc3ccc4[nH]c(C)cc4c3F)ncnc2cc1OCCCN1CCCC1 [cediranib] (first compound 0.4 µM, partner dose 0.4 µM), the “cleaved PARP positive nuclei fraction” value (501Mel) is reported as 96.9%, the “cleaved PARP positive nuclei fraction” value (A101D) is reported as 65.8% and the “cleaved PARP positive nuclei fraction” value (A2058) is reported as 60.9%. For the same compound, the “cleaved PARP positive nuclei fraction” value (A375) was 42.9%, the “cleaved PARP positive nuclei fraction” value (C32) was 111% and the “cleaved PARP positive nuclei fraction” value (CBRC008) was 56.1%. The “cleaved PARP positive nuclei fraction” value (CBRC013) was 140%, the “cleaved PARP positive nuclei fraction” value (CBRC014) was 70% and the “cleaved PARP positive nuclei fraction” value (CBRC016) was 26.8%. For the same compound, the “cleaved PARP positive nuclei fraction” value (CBRC017) was 72.9%.
`C[As](C)SC[C@H](NC(=O)CC[C@H](N)C(=O)O)C(=O)NCC(=O)O` [Darinaparsin] + Cc1cc(N2CCOCC2)cc2[nH]c(-c3c(NC[C@@H](O)c4cccc(Cl)c4)cc[nH]c3=O)nc12 [BMS536924] (first compound 0.4 µM, partner dose 0.2 µM) was tested, and the “cleaved PARP positive nuclei fraction” value (501Mel) was 132%, the “cleaved PARP positive nuclei fraction” value (A101D) was 78.5% and the “cleaved PARP positive nuclei fraction” value (A2058) was 107%. The “cleaved PARP positive nuclei fraction” value (A375) was 278%, the “cleaved PARP positive nuclei fraction” value (C32) was 75.7% and the “cleaved PARP positive nuclei fraction” value (CBRC008) was 230%. The “cleaved PARP positive nuclei fraction” value (CBRC013) was 114%, the “cleaved PARP positive nuclei fraction” value (CBRC014) was 86.5% and the “cleaved PARP positive nuclei fraction” value (CBRC016) was 57.5%. The “cleaved PARP positive nuclei fraction” value (CBRC017) was 116%.
`N.N.[Cl][Pt][Cl]` [cisplatin] + COc1cc2c(Oc3ccc4[nH]c(C)cc4c3F)ncnc2cc1OCCCN1CCCC1 [cediranib] (first compound 1.6 µM, partner dose 0.4 µM) was tested, and the “cleaved PARP positive nuclei fraction” value (501Mel) was 88.4%, the “cleaved PARP positive nuclei fraction” value (A101D) was 82.8% and the “cleaved PARP positive nuclei fraction” value (A2058) was 117%. The “cleaved PARP positive nuclei fraction” value (A375) was 81.4%, the “cleaved PARP positive nuclei fraction” value (C32) was 172% and the “cleaved PARP positive nuclei fraction” value (CBRC008) was 127%. For the same compound, the “cleaved PARP positive nuclei fraction” value (CBRC013) was 55.4%, the “cleaved PARP positive nuclei fraction” value (CBRC014) was 101% and the “cleaved PARP positive nuclei fraction” value (CBRC016) was 119%. The “cleaved PARP positive nuclei fraction” value (CBRC017) was 114%.
In the case of `C[C@]12O[C@H](C[C@]1(O)CO)n1c3ccccc3c3c4c(c5c6ccccc6n2c5c31)CNC4=O` [Lestaurtinib] + O=C(CCCCCCC(=O)Nc1ccccc1)NO [vorinostat] (first compound 0.004 µM, partner dose 0.08 µM), the “cleaved PARP positive nuclei fraction” value (501Mel) is reported as 107%, the “cleaved PARP positive nuclei fraction” value (A101D) is reported as 219% and the “cleaved PARP positive nuclei fraction” value (A2058) is reported as 78.3%. For the same compound, the “cleaved PARP positive nuclei fraction” value (A375) was 87.5%, the “cleaved PARP positive nuclei fraction” value (C32) was 71.5% and the “cleaved PARP positive nuclei fraction” value (CBRC008) was 123%. The “cleaved PARP positive nuclei fraction” value (CBRC013) was 93.2%, the “cleaved PARP positive nuclei fraction” value (CBRC014) was 82.4% and the “cleaved PARP positive nuclei fraction” value (CBRC016) was 27.2%. For the same compound, the “cleaved PARP positive nuclei fraction” value (CBRC017) was 102%.
